Measured values: the supplement of paper PMC9135407
Where “and” joins values, the source holds several entries; their conditions need not be identical. Equal values may be shown once. Where a name gives a salt, the structure may show the parent alone. ± gives the standard deviation of the averaged measurements. The list shows a part of the results. Plates or batches differ in their baseline, so values are only roughly comparable.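 Culture-activated primary human stellate myofibroblasts, where regained lipid droplets signal inactivation. Value: share of Hoechst-counted cells above a per-plate Bodipy cutoff, in duplicate wells, with DMSO negative and nortriptyline positive controls on each plate. Hits: a control-normalized score above the plate's top-tenth-percentile nortriptyline wells, or one of a plate's three best wells. Final well concentrations are not given.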

Tested on: primary human hepatic stellate cells (donor 1)
Test: percent Bodipy-positive cells; higher = more lipid droplet accumulation
Settings: 48 h
Protocol: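 Primary lipid accumulation screen in primary human hepatic stellate cell myofibroblasts (donor 1, passage 8) in 384-well plates. 100 nL of library compound was pin-transferred into 30 µL medium in duplicate, and cells were treated for 48 h. The 'Scaled' score combines distance from plate baseline, toxicity and reproducibility penalties, and is normalised to nortriptyline (positive) and DMSO (negative) controls on each plate. A hit is defined as scaled >0.85 or among the top 3 wells per plate.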

[1] = library stock concentration: 10 mM
[2] = library stock concentration: 3.33 mM
[3] = library stock concentration: 1 mM

CCc1c(C)[nH]c2c1C(=O)C(CN1CCOCC1)CC2 (centres undefined) [Moban]
percent Bodipy-positive cells [1]: 27.6 ± 12%

CCc1c(C)[nH]c2c1C(=O)C(CN1CCOCC1)CC2 (centres undefined) [Molindone hydrochloride]
percent Bodipy-positive cells: 10.6 ± 3.8% | percent Bodipy-positive cells [1]: 32.2 ± 1.3%

NC(=O)CNCCC(c1ccccc1)c1ccccc1 [N20C hydrochloride]
percent Bodipy-positive cells [1]: 34 ± 4.2%

NC(=O)CNCCC(c1ccccc1)c1ccccc1 [N-(3,3-Diphenylpropyl)glycinamide]
percent Bodipy-positive cells [1]: 66.3 ± 17%

CCCCC(CC)CCC(CC(C)C)OS(=O)(=O)O (centres undefined)
percent Bodipy-positive cells [1]: 29.9 ± 2.6%

Cc1cc(C)c(-c2csc(NC(=O)c3ccccc3)n2)c(C)c1
percent Bodipy-positive cells [2]: 30.7 ± 4.3% | percent Bodipy-positive cells [1]: 30.2 ± 2.5%

O=C(O)COCCN1CCN(C(c2ccccc2)c2ccc(Cl)cc2)CC1 (centres undefined) [Cetirizine hydrochloride]
percent Bodipy-positive cells [1]: 42.4 ± 8%

O=C(O)COCCN1CCN(C(c2ccccc2)c2ccc(Cl)cc2)CC1 (centres undefined) [Cetirizine]
percent Bodipy-positive cells [1]: 37.2 ± 15%

O=C(O)COCCN1CCN(C(c2ccccc2)c2ccc(Cl)cc2)CC1 (centres undefined) [Cetirizine dihydrochloride]
percent Bodipy-positive cells: 35.5 ± 9.1%

O=C(O)COCCN1CCN(C(c2ccccc2)c2ccc(Cl)cc2)CC1 (centres undefined) [Cetirizine DiHCl]
percent Bodipy-positive cells [2]: 10.3 ± 2.6% | percent Bodipy-positive cells [1]: 14.1 ± 1.8%

N[C@@H]1CONC1=O [Cycloserine]
percent Bodipy-positive cells [1]: 24.3 ± 10%

N[C@@H]1CONC1=O [D-Cycloserine]
percent Bodipy-positive cells [1]: 53.8 ± 7.8%

N[C@@H]1CONC1=O [D-cycloserine]
percent Bodipy-positive cells: 8.27 ± 3.8%

Cn1cc(-c2cnn3c(N)c(Br)c([C@@H]4CCCNC4)nc23)cn1
percent Bodipy-positive cells [2]: 6.26 ± 4.1% | percent Bodipy-positive cells [1]: 66.1 ± 1%

Cc1nnsc1C(=O)Nc1ccc(-n2nc(C(F)(F)F)cc2C(F)(F)F)cc1
percent Bodipy-positive cells [3]: 18.9 ± 2.2%

CN1CCN(C2=Cc3ccccc3Oc3ccc(Cl)cc32)CC1.O=C(O)/C=C/C(=O)O
percent Bodipy-positive cells [1]: 79 ± 4.9%

CCCCC(C)(C)[C@H](O)/C=C/[C@H]1C=CC(=O)[C@@H]1C/C=C\CCCC(=O)O [16,16-dimethyl Prostaglandin A2]
percent Bodipy-positive cells [3]: 14.8 ± 1.1%

C=CC(=O)Nc1cccc(Nc2nc(Nc3ccc(Oc4ccnc(C(=O)NC)c4)cc3)ncc2F)c1
percent Bodipy-positive cells [2]: 48.1 ± 2.3% | percent Bodipy-positive cells [1]: 77.6 ± 16%

CCCSc1nc(N[C@@H]2C[C@H]2c2ccc(F)c(F)c2)c2nnn([C@@H]3C[C@H](OCCO)[C@@H](O)[C@H]3O)c2n1 [Ticagrelor]
percent Bodipy-positive cells [2]: 11.8 ± 6.9% | percent Bodipy-positive cells [1]: 60.9 ± 8.4%

CC(=O)O[C@]1(C(C)=O)CC[C@H]2[C@@H]3C=C(Cl)C4=CC(=O)[C@@H]5C[C@@H]5[C@]4(C)[C@H]3CC[C@@]21C [Cyproterone acetate]
percent Bodipy-positive cells: 13.4 ± 0.41% | percent Bodipy-positive cells (library stock concentration: 4.8 mM): 12.4% and 4.18%

CC(=O)O[C@]1(C(C)=O)CC[C@H]2[C@@H]3C=C(Cl)C4=CC(=O)[C@@H]5C[C@@H]5[C@]4(C)[C@H]3CC[C@@]21C [Cyproterone Acetate]
percent Bodipy-positive cells [2]: 10.6 ± 0.56% | percent Bodipy-positive cells [1]: 17.1 ± 1.5%
